Measured values as given in patent publication US20120283217A1, “MODULATORS OF AMYLOID-BETA PRODUCTION” (SATORI PHARMACEUTICALS, INC., priority 2006, published 2012).
Some of these results come from one statement about several compounds together. Some ranges recur; such a range may be that of the whole group of compounds.

Tested on: amyloid-beta (1-42) peptide
Experiment: cell-based assay of selective lowering of amyloid-beta (1-42) peptide, as described in U.S. Pat. No. 6,649,196
Conditions: at 10 μM

SMILES	selectively lower amyloid-beta (1-42) peptide
CC(C)(C)[Si](C)(C)O[C@H]1CC[C@@]2(C)C(=CCC3C2CC[C@]2(C)C(=O)CCC32)C1 (some centres unmarked) [Compound I-5]	selectively lower amyloid-beta (1-42) peptide
CC(C)(C)[Si](C)(C)O[C@H]1CC[C@@]2(C)C(=CC[C@@H]3[C@@H]2CC[C@]2(C)C(=O)CC[C@@H]32)C1 [Compound I-13]	selectively lower amyloid-beta (1-42) peptide
